# Data from the supplement of paper PMC12889115.
# This is one part of the list. These are raw signals, not scaled to a control.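 In the initial screen, polymyxin B was used at a concentration that permeabilizes Salmonella's outer membrane but not its inner membrane. Maximum growth was set by DMSO wells with or without polymyxin B. Since plates varied, data were ranked per plate, and compounds giving the lowest OD600 advanced as hits.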
# Test system: Salmonella enterica serovar Typhimurium SL1344
# Assay: bacterial growth OD600 after 18 h with compound and polymyxin B; higher = more bacterial growth (less inhibition)
# Details: 50 µM, Mueller-Hinton broth
SMILES,bacterial growth OD600 (polymyxin B 0.75 µg/mL),bacterial growth OD600 (polymyxin B 1 µg/mL)
COc1ccc(F)c(CC2(CCC(=O)NCc3cccc(OC(F)(F)F)c3)CCC(=O)N2)c1 (stereo unspecified),0.732,–
Cc1ccn(CC(=O)N2CCC(C3(Cc4cccc(F)c4)NC(=O)N(CC(C)C)C3=O)CC2)n1 (stereo unspecified),0.9,–
CN(CCc1cn[nH]c1)C(=O)C1(N2CCCCC2)Cc2ccccc2C1,0.007,–
OCC1(Cc2cccc(C(F)(F)F)c2)CCN(Cc2ccc3ncccc3c2)CC1,0.53,–
O=C(CCC1(Cc2ccc(F)cc2)CCC(=O)N1)NC(c1ccccc1)c1ccc(Cl)cc1 (stereo unspecified),0,–
O=C(NCC1CCCO1)c1ccc2oc(-c3ccc(C(F)(F)F)cc3)nc2c1 (stereo unspecified),0.212,–
COc1ccccc1OCC(=O)NCC1CCCN(C/C=C/c2ccc(F)cc2)C1 (stereo unspecified),–,1.03
CCOC(=O)N1CCN(C(=O)c2ccc(N3CCC(NCCc4c(C)n[nH]c4C)CC3)cc2)CC1,0.849,–
NC(=O)[C@H](Cc1ccccc1)NC1CCN(c2cccc(NS(=O)(=O)c3ccc(F)cc3)c2)CC1,0.748,–
CC(CCCC(C)(C)O)Nc1nncc(-c2ccccc2F)n1 (stereo unspecified),–,1.03
Cn1ccnc1CNC(=O)CC(c1ccccc1)c1ccccc1Cl (stereo unspecified),–,0.846
CN(Cc1ccon1)Cc1cn(-c2ccc(F)cc2)nc1-c1ccccc1Cl,–,0.155
Cc1cc(C)n(Cc2cc(C(=O)N3CCCC3c3ccccn3)n[nH]2)n1 (stereo unspecified),–,0.877
Cc1ncc(CN2CCCC(CNC(=O)c3cccc(C(F)(F)F)c3)C2)s1 (stereo unspecified),–,1.02
Cc1ccc2oc(C(=O)N3CCN(CC(=O)NC(C)C)CC3)c(C)c2c1,–,1.11
COC(=O)C1CCCCN1C(=O)c1c(OC)cc(=O)n2c1CCN(Cc1cccc(OC)c1)CC2 (stereo unspecified),0.847,–

# Molecules listed so far that contain sulfur:
SMILES,bacterial growth OD600 (polymyxin B 0.75 µg/mL),bacterial growth OD600 (polymyxin B 1 µg/mL)
NC(=O)[C@H](Cc1ccccc1)NC1CCN(c2cccc(NS(=O)(=O)c3ccc(F)cc3)c2)CC1,0.748,–
Cc1ncc(CN2CCCC(CNC(=O)c3cccc(C(F)(F)F)c3)C2)s1 (stereo unspecified),–,1.02

# More structures follow.

SMILES,bacterial growth OD600 (polymyxin B 0.75 µg/mL),bacterial growth OD600 (polymyxin B 1 µg/mL)
O=C(Cc1cscn1)N1CCC(C2(c3ccccn3)NC(=O)N(CCc3cccs3)C2=O)CC1 (stereo unspecified),0.778,–
COc1cccc(-c2ccnc(-n3ncc(C(=O)N4CCN(CCO)CC4)c3C3CC3)n2)c1,0.996,–
O=C(CCN1CCCCO1)N1CCc2onc(-c3ccc(F)c(F)c3)c2C1,0.812,–
COc1ccc(CN2CCN(Cc3ccc(Cl)cc3)CC2CCO)cc1C (stereo unspecified),–,0.976
Cc1ccoc1C(=O)NC1CC(=O)N(Cc2cccc3ccccc23)C1 (stereo unspecified),–,0.856
COc1ccc(CCNC(=O)c2cn(C(C)C)cc(C(=O)NC(C)(C)C)c2=O)cc1OC,0.723,–
COc1cccc(C(=O)C2CCCN(Cc3nc(-c4ccccc4)cs3)C2)c1 (stereo unspecified),0.162,–
Cc1cc(C)nc(CNC(=O)c2cccc(OC3CCN(S(C)(=O)=O)CC3)c2)n1,–,1.02
CCC(NC(=O)C1(N2CCN(CC)CC2)Cc2ccccc2C1)c1ccncc1 (stereo unspecified),0.912,–
COCCn1cnc2cc(NC(=O)C3CCCCC3)cc(C(=O)N3CCC(c4ccccc4)CC3)c21,0.009,–
O=C(NCc1ccccn1)c1cccc(OC2CCN(C(=O)C3CCCC3)CC2)c1,–,1.01
c1ccc(COC2CCN(Cc3nc(-c4ccc5c(c4)OCO5)no3)CC2)nc1,–,0.913
C=CCC(O)(CC=C)C(C)NC(=O)C1CCCN1c1nc(C)c2cc(OC)ccc2n1 (stereo unspecified),0.772,–
O=C(CCc1ccccc1)Nc1ccc(N2CCC(NCCCOc3cccnc3)CC2)cc1,0.827,–
COc1ccc(CC2(CCC(=O)N3CCCC(c4ccccc4)C3)CCC(=O)N2)c2ccccc12 (stereo unspecified),0.041,–
